The values that follow come from PubChem BioAssay AID2685 (National Center for Advancing Translational Sciences (NCATS), 2010).

The assay in a line: qHTS Assay for Lipid Storage Modulators in Drosophila S3 Cells.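 As to cell number change: cells counted by Cell Tracker Red CMTPX staining in the red channel.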 As to conditions: BODIPY lipid droplet fluorescence, 18-24 h; for cell number change: measured here: cell count max response, cells fed with added oleic acid. The essentials:
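Drosophila S3 cells got compounds at several concentrations plus oleic acid (400 uM solution). Laser-scanning cytometry with 488 nm excitation read lipid droplets at 500-530 nm and cells at 575-640 nm. Percent activity was relative to 20 uM Triacsin C.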

[1] abbreviates: measured here: cell number channel AC50, cells fed with added oleic acid.
Where [2] appears, read: measured here: lipid fluorescence (Fed channel) AC50, cells fed with added oleic acid.

The structures appear in SMILES notation. This is one part of the list. Shown are side measurements of this screen, not its main read-out; they come without a call. Most of these compounds were active or inconclusive in the main read-out, so they are no random draw. Potencies come from curve fits of mixed quality, noted in brackets. Where a SMILES comes first, the peptide text is derived from it. The star is where a group is joined. Boc = CC(C)(C)OC(=O)*; Bn = c1ccc(C*)cc1

Turning to `COc1ccc(NC(=O)c2ccc(-n3cccn3)nc2)cc1`, the cell number change was found to be 10.9%. Further, the AC50 under setting [1] is 3.66 µM [rising, single point].
Take `O=C(NCCCN1CCOCC1)c1ccc(S(=O)(=O)Nc2ccccc2F)cc1`: the cell number change was -4.98%.
As for `COc1ccc(C(CNC(=O)c2ccc3c(c2)C(=O)N(CCC(C)C)C3=O)N2CCOCC2)cc1` (stereo unspecified), the cell number change was -7.78%. Moreover, the AC50 under setting [2] is 0.651 µM [rising, single point].
Turning to `Cc1c(CCOC(=O)c2cc([N+](=O)[O-])ccc2Cl)sc[n+]1CCCCS(=O)(=O)[O-]`, the cell number change stood at 12%. Further, under setting [1], the AC50 is 0.13 µM [falling, full curve, poor fit].
Turning to `CC1(C)Cc2ccccc2C(C(Cc2ccccc2)C(N)=O)=N1` (stereo unspecified), the cell number change turned out to be 20.3%.
Consider `CN(c1ccccc1C(=O)NC1CC2CCC1C2)S(=O)(=O)c1ccccc1` (stereo unspecified), for which the cell number change is -14.2%. Moreover, under setting [2], the AC50 is 18.4 µM [falling, partial curve, poor fit].
On to `COc1ccc(/C(O)=C2/C(=O)C(=O)N(c3nc(C)c(C)s3)C2c2ccco2)cc1` (stereo unspecified), for which the cell number change came out at 5.49%. Also, under setting [2], the AC50 was 1.16 µM [falling, full curve, poor fit].
For the compound `Cc1ccc(-c2noc(C3CCCN(C(=O)c4cccc(Cl)c4)C3)n2)o1` (stereo unspecified), the cell number change was determined as 6.58%.
As to `O=C(Cc1cccc(C(F)(F)F)c1)Nc1ccccc1N1CCCC1`, under setting [2], the AC50 is 35.5 µM [falling, single point].
As for `O=C1CC(N2CCSCC2)C(=O)N1c1ccc(Br)cc1` (stereo unspecified), the cell number change was 4.16%. Moreover, the AC50 under setting [2] was 4.11 µM [falling, single point].
Turning to `COc1ccc(N2CCN(Cc3cc(=O)oc4cc(-c5ccccc5)c(O)cc34)CC2)cc1`, the cell number change was -27%. For the same compound, the AC50 under setting [1] is 0.82 µM [falling, full curve, poor fit].
Turning to `CN1CCN(C(=O)/C=C/c2ccc([N+](=O)[O-])o2)CC1`, the AC50 under setting [2] is 23.1 µM [falling, partial curve, poor fit].
The same measure, in the same setting: then `Nc1nc(-c2ccco2)nn1C(=O)c1ccc(Cl)cc1`, with 3.66 µM [falling, partial curve].
`CCn1c(SCC(=O)NCc2ccccc2)nc2nc3c(cc2c1=O)CCCC3`: the cell number change is 4.31%. The AC50 under setting [2] was 0.651 µM [falling, single point].
As to `COc1ccc(Nc2oc(COc3cccc(C)c3)nc2C#N)cc1`, the half-maximal activity concentration (AC50) under setting [2] was 3.26 µM [rising, partial curve].
As for `Cc1ccsc1C(=O)OCC(=O)NCCCc1ccccc1`, the cell number change amounted to 27.3%. The AC50 under setting [2] is 0.0411 µM [rising, partial curve, poor fit].
Take `C/C(=N\NC(=O)c1cc(C)nc2ccc(C)cc12)c1ccncc1`: the cell number change was -21.3%. Moreover, the AC50 under setting [2] was 29.1 µM [rising, single point].
For `CCN(Cc1nc2ccccc2c(=O)[nH]1)C(=O)c1cccc(NC(=O)c2cccs2)c1`, the cell number change worked out at 15.5%. For the same compound, under setting [2], the AC50 was 0.731 µM [rising, partial curve].
With `CCN(CC(=O)Nc1c(F)cccc1F)C(=O)C1CC1`, the cell number change was -8.45%. Besides, the AC50 under setting [2] was 0.731 µM [rising, full curve].
For `CC1CCCC(C)N1/N=C/c1cccc(Br)c1` (stereo unspecified), the cell number change is -32.9%. The AC50 under setting [1] was 29.1 µM [falling, single point].
For the compound `CCOC(=O)C1=C(N)n2c(s/c(=C\c3ccncc3)c2=O)=C(C(=O)OCC)C1c1ccncc1` (stereo unspecified), the cell number change stood at 1.38%. In addition, the AC50 under setting [2] is 4.11 µM [rising, partial curve, poor fit].
Turning to `CCNC(=O)CC1C(=O)N(c2cccc(OC)c2)C(=O)N1CCOC` (stereo unspecified), the cell number change was -17.4%. Also, under setting [2], the AC50 is 0.00731 µM [falling, full curve, poor fit].
On to `Cc1ccnc(NC(=O)CSc2ccc3c(c2)OCCO3)c1`, for which the cell number change was 28.7%. The AC50 under setting [2] was 6.51 µM [falling, single point].
Take `O=[N+]([O-])c1cccc(-n2cc3ccc([N+](=O)[O-])cc3n2)c1`: the cell number change is -7.42%. In addition, the AC50 under setting [1] is 0.58 µM [rising, single point]. The AC50 under setting [2] was 0.164 µM [falling, full curve, poor fit].
For the compound `CC(OC(=O)c1cccc(-n2cnnn2)c1)C(=O)N(C)c1ccccc1` (stereo unspecified), the cell number change was -35.2%. For the same compound, the AC50 under setting [1] is 14.6 µM [falling, single point]. Further, under setting [2], the AC50 is 11.6 µM [falling, partial curve].
Take `C#CCOCCOCCOCCNc1nc(N2CCN(C(=O)CCCCCCCCCCNC(=O)[C@H](CCCN=C(N)N)n3cc(C[C@@H](C)CC)nn3)CC2)nc(N2CCN(C(=O)CCCCCCCCCCNC(=O)[C@@H]([C@H](C)CC)n3cc(CCCCCN)nn3)CC2)n1`: the cell number change is -57.8%. Further, under setting [1], the AC50 was 20.6 µM [falling, partial curve]. For the same compound, the AC50 under setting [2] was 20.6 µM [falling, partial curve].
With `CC(Nc1nc(-c2ccccc2)nc2ccccc12)c1ccccc1` (stereo unspecified), the cell number change amounted to 43%.
Turning to `O=S(=O)(N/N=C/c1ccc(N2CCOCC2)cc1)c1ccccc1`, the cell number change is -19.7%. In addition, the AC50 under setting [1] was 0.00461 µM [falling, full curve, poor fit]. Besides, the half-maximal activity concentration (AC50) under setting [2] was 0.00461 µM [falling, full curve, poor fit].
For the compound `O=C(CSc1ncccn1)NC(=O)NCc1ccccc1`, the cell number change stood at 2.16%. Further, the concentration at half-maximal activity (AC50) under setting [2] was 6.51 µM [falling, single point].
For `CN(C(=O)COC(=O)c1cncc(Br)c1)C1CCS(=O)(=O)C1` (stereo unspecified), the cell number change was -13.8%. In addition, the AC50 under setting [2] was 0.411 µM [falling, full curve].
Take `CC(C)CC(NC(=O)C(CC(C)C)NC(=O)C(Cc1ccc(OCc2ccccc2)cc1)NC(=O)OC(C)(C)C)C(N)=O` (stereo not drawn) (Boc-Tyr(Bn)-Leu-Leu-NH2; configuration not given here): the cell number change turned out to be 8.59%. For the same compound, the AC50 under setting [2] is 3.66 µM [falling, single point].
Turning to `CCn1c(COc2ccccc2C)nnc1SCC(=O)NCc1ccccc1`, the cell number change is -38.9%. Moreover, under setting [1], the AC50 was 4.61 µM [falling, full curve]. Further, the AC50 under setting [2] was 2.06 µM [falling, full curve, poor fit].
In the case of `COc1ccccc1NC(=O)C(=O)NCC(c1ccco1)N1CCc2ccccc21` (stereo unspecified), the cell number change is 12.3%.
On the same count and under the same terms, then `O=C(NNC(=O)c1cccs1)c1cccnc1`, with 5.65%.
As to `CCCC(=O)NCc1nc2ccccc2n1CC(=O)c1ccccc1`, the cell number change stood at 22.6%. Besides, the AC50 under setting [2] is 29.1 µM [rising, single point].
For the compound `CCCn1c(SCC(=O)NC2CCCCC2)nnc1C1CC1`, the cell number change was -29.6%. Moreover, under setting [2], the AC50 is 29.1 µM [falling, single point].
On to `CCCC(NC(=O)C(C)Sc1nnnn1C1CC1)c1ccccc1` (stereo unspecified), for which the cell number change is -2.59%. Further, under setting [2], the AC50 is 2.59 µM [falling, partial curve].
Consider `CC1Cc2ccccc2N1c1ncnc(N)c1[N+](=O)[O-]` (stereo unspecified), for which the cell number change is -32.5%. The concentration at half-maximal activity (AC50) under setting [1] is 29.1 µM [falling, single point]. For the same compound, the AC50 under setting [2] is 29.1 µM [falling, single point].
For the compound `CCCNC(=O)C1CCCN(S(=O)(=O)c2ccc3c(c2)CC(C)N3C(=O)C2CC2)C1` (stereo unspecified), the cell number change worked out at 37.7%. Also, under setting [2], the AC50 is 0.517 µM [rising, single point].
For `CN1CCN(Cc2c(O)ccc3occ(C(=O)c4ccccc4)c23)CC1`, the cell number change is -20.9%. Moreover, the AC50 under setting [2] was 29.1 µM [rising, single point].
With `CSc1nc(-c2ccccc2)cc(C)c1C#N`, the cell number change came out at 11.2%. Also, under setting [2], the AC50 is 20.6 µM [rising, partial curve].
In the case of `COc1ccc(CC(=O)Nc2cc3oc4ccccc4c3cc2OC)cc1`, the cell number change was determined as 18.3%. The AC50 under setting [2] is 6.51 µM [rising, single point].
Regarding `COc1ccccc1Nc1nc(N)nc(CSc2ncccn2)n1`, the cell number change amounted to 8.59%. Besides, under setting [2], the AC50 is 1.64 µM [rising, full curve].
Consider `CCc1ccc(CNC(=O)c2cc3c(C)nc4ccccc4c3o2)cc1`, for which the cell number change amounted to 4.36%. Also, under setting [1], the AC50 was 0.731 µM [rising, partial curve]. Besides, the AC50 under setting [2] is 0.92 µM [rising, partial curve].
For `N=c1sccn1CC(=O)Nc1cc(Cl)ccc1[N+](=O)[O-]`, the cell number change was found to be 44.8%. Besides, the AC50 under setting [1] is 20.6 µM [rising, single point]. The AC50 under setting [2] was 2.31 µM [rising, single point].
Take `O=C1NCN(c2ccccc2)C12CCN(c1nnnn1-c1ccccc1)CC2`: the cell number change worked out at 190%. Besides, the AC50 under setting [1] is 14.6 µM [rising, partial curve]. For the same compound, under setting [2], the AC50 is 4.61 µM [rising, partial curve].
With `CC1=C(c2ccccc2)[N+](=O)C2(CCCC2)N1[O-]`, the cell number change was -6.5%. Also, under setting [2], the AC50 was 0.164 µM [falling, full curve, poor fit].
As for `COc1ccc(C2CC(c3ccccc3)=NN2C(=O)COC(=O)CNC(=O)c2ccccc2)cc1` (stereo unspecified), under setting [2], the AC50 is 20.6 µM [falling, single point].
Regarding `Cc1cccc(N=C2NN=C(c3c(C)[nH]c4ccccc34)CS2)c1`, the cell number change is -14.9%. The AC50 under setting [2] is 16.4 µM [falling, single point].
As to `Cn1c(N)c(S(=O)(=O)N2CCN(c3ccccc3F)CC2)c(=O)n(C)c1=O`, the cell number change stood at 5.43%. In addition, the AC50 under setting [2] was 5.62 µM [falling, single point].
Turning to `O=C(CCN1C(=O)c2ccccc2C1=O)C1=NN[C@@H]2C(=O)N(c3cccc(Cl)c3)C(=O)[C@H]12`, the AC50 was 0.651 µM [falling, partial curve, poor fit] under setting [1] and 0.58 µM [falling, partial curve, poor fit] under setting [2].
For `Cc1ccc(S(=O)(=O)N2CCN(c3cccc(C)c3)CC2)cc1`, the cell number change is -9.62%. For the same compound, the AC50 under setting [2] was 18.4 µM [falling, single point].
Take `Cc1c(CC(=O)NCCCCCC(=O)O)c(=O)oc2c(C)c3oc4c(c3cc12)CCCC4`: the cell number change was 52.3%. For the same compound, the AC50 under setting [1] was 0.164 µM [rising, full curve, poor fit].
As to `COc1cc(C(=O)OC(C)C(=O)Nc2ccc3c(c2)OCO3)ccc1OCc1c(C)noc1C` (stereo unspecified), the cell number change is -14.8%. Besides, under setting [2], the AC50 was 1.46 µM [falling, partial curve].
In the case of `COc1ccc(CNC(=O)c2cc(-c3cc(C)ccc3O)n[nH]2)cc1`, the cell number change was determined as 25.7%. The AC50 under setting [2] was 0.146 µM [rising, full curve, poor fit].
Turning to `COc1ccc(/C=N/n2cnnc2SCc2ccccc2)cc1`, the cell number change was -20.8%.
Regarding `O=C(NCCOc1ccccc1F)C1CCC(=O)N(CCc2cccc(F)c2)C1` (stereo unspecified), the cell number change turned out to be 23.8%. The AC50 under setting [2] is 0.58 µM [falling, single point].
